# Literature values, collected in patent publication US11186807B2, “Reducing acetate ester production in yeast” (VIB VZW, priority 2017, dated 2021).
# Details: reported flavor threshold level; cited from earlier work
row,Compound,Threshold (ppm)
1,CC(=O)OCC(C)C [Isobutyl acetate],1.6
2,CC(=O)OCCC(C)C [Isoamyl acetate],0.51
3,CC(C)CCO [Isoamyl alcohol],70
4,CC(=O)OCCc1ccccc1 [Phenyl ethyl acetate],3.8
5,CCOC(C)=O [Ethyl acetate],30
